# Data: the supplement of paper PMC6411743
# ± gives the standard deviation of the averaged measurements. Some of the results follow.
# Biological target: T1, UAP1L1 (UniProt Q3KQV9)
# T1 sequence (whole entry): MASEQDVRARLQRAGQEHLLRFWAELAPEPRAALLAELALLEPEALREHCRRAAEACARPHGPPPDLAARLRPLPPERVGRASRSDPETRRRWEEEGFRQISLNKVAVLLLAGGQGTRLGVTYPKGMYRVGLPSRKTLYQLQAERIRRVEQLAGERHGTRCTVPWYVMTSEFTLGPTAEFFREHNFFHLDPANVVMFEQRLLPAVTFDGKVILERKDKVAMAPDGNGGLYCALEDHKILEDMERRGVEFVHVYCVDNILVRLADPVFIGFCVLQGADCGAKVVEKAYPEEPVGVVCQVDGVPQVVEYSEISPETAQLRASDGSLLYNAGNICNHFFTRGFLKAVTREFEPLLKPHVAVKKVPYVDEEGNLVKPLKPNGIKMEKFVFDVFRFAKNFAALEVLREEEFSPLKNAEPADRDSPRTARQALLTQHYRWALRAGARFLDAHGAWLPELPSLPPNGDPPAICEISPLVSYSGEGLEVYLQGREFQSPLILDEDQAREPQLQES
# Assay: NP40-soluble protein abundance relative to vehicle (solubility fold change) (ratio); higher = more soluble protein in presence of GTP
# Description: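 Solubility proteome profiling in Jurkat crude lysate. Lysate was treated with Mg-GTP (0.1-10 mM) for 10 min at room temperature and 3 min at 37 °C, then solubilised with 0.8% NP40 and benzonase, followed by ultracentrifugation. Proteins were quantified by TMT10 LC-MS/MS; the value is the NP40-soluble abundance relative to the NP40-processed vehicle, from 3 independent experiments.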
smiles,measurement,setting,value
Nc1nc2c(ncn2[C@@H]2O[C@H](COP(=O)(O)OP(=O)(O)OP(=O)(O)O)[C@@H](O)[C@H]2O)c(=O)[nH]1 [guanosine triphosphate],NP40-soluble protein abundance,concentration: 0.1mM,1.06 ± 0.054
same,NP40-soluble protein abundance,concentration: 0.5mM,1 ± 0.073
same,NP40-soluble protein abundance,concentration: 1mM,0.962 ± 0.07
same,NP40-soluble protein abundance,concentration: 2mM,0.918 ± 0.14
same,NP40-soluble protein abundance,concentration: 4mM,0.984 ± 0.18
same,NP40-soluble protein abundance,concentration: 6mM,0.88 ± 0.099
same,NP40-soluble protein abundance,concentration: 8mM,0.856 ± 0.12
same,NP40-soluble protein abundance,concentration: 10mM,0.857 ± 0.18
